Laboratory results: patent US5892064A, “Chemiluminescent dialkyl-substituted 1,2-dioxetanes, methods of synthesis and use” (Lumigen, Inc., priority 1997, dated 1999)
Some entries repeat one wording, which the source may state once for all of them.

Experiments:
[1] = Fluoride-triggered (TBAF) chemiluminescent decomposition of dioxetanes in DMSO; assay type: physicochemical; settings: for total chemiluminescence intensity generated by fluoride-triggering, compared: 10 μL of 10^-6 M dioxetane with 50 μL of 1M TBAF in DMSO; for Total intensity: [F-] 1M, DMSO
Description: Chemiluminescence intensities and rate measurements were performed using either a Turner Designs (Sunnyvale, Calif.) model TD-20e luminometer or a luminometer built in house (Black Box) which uses a photon counting photomultiplier. Temperature control of samples analyzed in the luminometers was achieved by means of a circulating bath connected to the instrument. Quantitative measurement of light intensities on the Turner luminometer was extended beyond the 10^4 linear range of the detector by a neutral density filter. Data collection was controlled by an Apple MacIntosh SE/30 computer using the LUMISOFT data reduction program (Lumigen, Inc., Southfield, Mich.).
Stock solutions of dioxetanes 2c, 2e, 2g and for comparison, 4-(3-t-butyldimethylsilyloxyphenyl)-4-methoxyspiro [1,2-dioxetane-3,2'-tricyclo[3.3.1.1^3,7 ]decane] (2j), (preparation described in U.S. Pat. No. 4,962,192) were made to a concentration of 10^-6 M in DMSO. Serial dilutions in DMSO were made as required. Ten μL aliquots were triggered in 7×50 mm polypropylene tubes in a Turner Designs TD-20e luminometer by injection of 50 μL of a solution of tetra-n-butylammonium fluoride (TBAF) in DMSO (1M-10^-4 M) in the appropriate solvent, typically DMSO. Light intensity was attenuated when needed by a neutral density filter. All experiments were conducted at ambient temperature. Peak light intensity and decay rate diminished as the fluoride concentration was decreased. At the lowest concentration of fluoride, decay kinetics were not cleanly first order.
The half lives for decay were essentially independent of dioxetane concentration.
The rates of fluoride-triggered decomposition of dioxetanes 2c, h, i and j were compared in DMSO under identical conditions, i.e. 10 μL aliquot of a 10^-6 M solution of dioxetane with 50 μL of 1M TBAF in DMSO. […]

alkaline phosphatase [2] = test: Relative chemiluminescence quantum yields: total light after complete dephosphorylation by alkaline phosphatase; assay type: biochemical
alkaline phosphatase [3] = test: Chemiluminescent detection of alkaline phosphatase on nylon membrane (X-ray film); assay type: biochemical; settings: 1.1 fmol to 1.1 amol AP on nylon, 0.33 mM dioxetane, 1 mg/mL Enhancer A
[4] = Enhancer A (1 mg/mL), 100 μL, 3.36×10^-13 mol AP
[5] = Enhancer B (0.5 mg/mL), 100 μL, 3.36×10^-13 mol AP
[6] = Enhancer C (0.5 mg/mL), 100 μL, 3.36×10^-13 mol AP
[7] = Enhancer: None (0.2M buffer), 500 μL, pH 9.6
[8] = Enhancer: None (0.75M buffer), 500 μL, pH 9.6

## COC1(c2cccc(OC(C)=O)c2)OOC1(C(C)C)C(C)C (stereo not drawn) [Dioxetane 2c]
[1]
  total chemiluminescence intensity generated by fluoride-triggering, compared: same chemiluminescence output within a factor of two

## COC1(c2cccc(OP(=O)(O)O)c2)OOC1(C(C)C)C(C)C (stereo not drawn) [Dioxetane 2f]
Alkaline phosphatase [2]; [4]
  Total Light Intensity: 1.19 × 10^7 RLU
Alkaline phosphatase [2]; [5]
  Total Light Intensity: 1.65 × 10^6 RLU
Alkaline phosphatase [2]; [6]
  Total Light Intensity: 4.15 × 10^7 RLU
Alkaline phosphatase [2]; [7]
  Total Light Intensity: 2.82 × 10^5 RLU
Alkaline phosphatase [2]; [8]
  Total Light Intensity: 5.55 × 10^4 RLU
Alkaline phosphatase [3]
  detection of alkaline phosphatase on membrane, images compared: equivalent images and detection sensitivity

## COC1(c2cccc(O[Si](C)(C)C(C)(C)C)c2)OOC1(C1CC1)C1CC1 (stereo not drawn) [Dioxetane 2g]
[1]
  total chemiluminescence intensity generated by fluoride-triggering, compared: same chemiluminescence output within a factor of two

## COC1(c2cccc(O[Si](C)(C)C(C)(C)C)c2)OOC1(C1CCCCC1)C1CCCCC1 (stereo not drawn) [Dioxetane 2h]
[1]; 10^-9 M dioxetane solution, 50 μL of 1M TBAF in DMSO
  signal relative to background: 1.5 times
[1]
  total chemiluminescence intensity generated by fluoride-triggering, compared: same chemiluminescence output within a factor of two
[1]; [Dioxetane 2h] 10^-6 M
  Total intensity: 1.9 × 10^4 TLU
[1]; [Dioxetane 2h] 10^-7 M
  Total intensity: 2.0 × 10^3 TLU
[1]; [Dioxetane 2h] 10^-8 M
  Total intensity: 2.1 × 10^2 TLU
[1]; [Dioxetane 2h] 10^-9 M
  Total intensity: 1.5 × 10^1 TLU

## COC1(c2cccc(O)c2)OOC1(C1CCCCC1)C1CCCCC1 (stereo not drawn) [Dioxetane 2i]
[1]
  total chemiluminescence intensity generated by fluoride-triggering, compared: same chemiluminescence output within a factor of two

## COC1(c2cccc(OP(=O)(O)O)c2)OOC12C1CC3CC(C1)CC2C3 (stereo not drawn) [Dioxetane 2k]
Alkaline phosphatase [2]; [4]
  Total Light Intensity: 9.0 × 10^6 RLU
Alkaline phosphatase [2]; [5]
  Total Light Intensity: 2.09 × 10^6 RLU
Alkaline phosphatase [2]; [6]
  Total Light Intensity: 3.65 × 10^7 RLU
Alkaline phosphatase [2]; [7]
  Total Light Intensity: 1.55 × 10^5 RLU
Alkaline phosphatase [2]; [8]
  Total Light Intensity: 4.41 × 10^4 RLU
Alkaline phosphatase [3]
  detection of alkaline phosphatase on membrane, images compared: equivalent images and detection sensitivity
